# PubChem BioAssay AID1671195 | Yale University, 2021
# Assay: 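Knockdowns that increase or decrease uptake of fluorescent LDL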 (primary screen)
# Cell system: human Huh7 hepatoma cells
# Reagents: siRNA pool against human genes, 18 nM
# Time to read-out: about 2 to 2.5 days of knockdown, then 8 h LDL uptake
# Conditions: DiI-labelled LDL at 30 µg/ml for 8 h, in lipoprotein-deficient serum medium
# Measurement: 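Per-cell DiI-LDL intensity by automated imaging; well means scaled to the plate median and given as a robust z-score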
# Reading the numbers: robust z-score: higher = more LDL uptake after knockdown
# Active means: 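a gene counts as active if at least two replicate z-scores exceed ±2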
# Here is an unselected part of about 22,000 reagents. About 1,510 of all reagents (6.9%) were called active. 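Active includes knockdowns raising or lowering LDL uptake; positive z-scores mean more uptake, negative mean less.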
Target gene,"robust z-score, replicate 1","robust z-score, replicate 2","robust z-score, replicate 3",Outcome
H2BW1,-0.615,-0.743,-0.107,inactive
C19orf48P,-0.391,-0.204,-0.226,inactive
PTPN3,-2,-1.8,-2.02,active
SPEF1,-0.073,-0.212,-0.269,inactive
TMEM175,0.924,1.77,1.12,inactive
UTP6,-0.55,-1.64,-0.844,inactive
ENDOV,0.982,1.56,2.4,inactive
KATNAL1,0.497,0.0522,0.108,inactive
MYT1,0.96,0.239,0.0318,inactive
GRIN1,0.461,0.995,1.01,inactive
IL4R,1.7,0.696,0.93,inactive
LOC389028 (retired record),-0.127,0.165,-0.385,inactive
LIMS2,0.532,0.666,-0.0926,inactive
SEPTIN9,-0.49,-0.874,-1.07,inactive
TEX2,-2.1,-0.417,-0.305,inactive
LOC391258 (retired record),3.9,3.43,3.22,active
TEX101,1.16,0.955,0.968,inactive
PFKFB4,-0.868,-0.597,-0.731,inactive
DMAC2L,-1.93,-1.02,-0.2,inactive
SPTBN5,1.77,1.66,2.75,inactive
TMEM154,-0.148,-0.673,-0.608,inactive
LOC387823 (retired record),-0.459,-0.359,-0.52,inactive
CARTPT,0.0528,-0.727,0.58,inactive
INHBA,1.83,0.58,0.791,inactive
KRT6A,-1.58,-1.73,-1.81,inactive
OR52B4,0.045,-1.53,-0.957,inactive
MAPKAPK5,-0.635,-1.04,-0.528,inactive
BEX2,0.546,1.35,0.549,inactive
B3GAT1-DT,1.54,1.64,1.66,inactive
CLIP4,1.01,0.469,1.32,inactive
NCKIPSD,-0.43,-0.378,0.443,inactive
HEXD,-0.696,-0.844,-0.835,inactive
DAPP1,-3.1,-1.75,-2.87,active
PLD3,-1.11,-0.899,-0.551,inactive
CYB561,-0.481,-0.343,-1.05,inactive
TOMM20,0.72,-0.396,-0.468,inactive
HCST,-0.352,-1.01,-0.815,inactive
ALCAM,1.99,0.444,1.14,inactive
LOC440962 (retired record),0.432,0.629,0.312,inactive
LOC441886 (retired record),0.591,0.764,0.78,inactive
ACTRT2,-1.71,-0.857,-1.3,inactive
LINC00596,-0.938,0.00952,-0.125,inactive
HPS3,0.186,0.633,0.7,inactive
LOC400526 (retired record),4.25,3.2,3.58,active
IRF7,-0.529,-0.272,-0.177,inactive
NPIPB11,-1.25,-1.54,-1.5,inactive
SLC52A3,0.212,1.82,1.89,inactive
TRIM64FP,-0.583,-1.11,-0.954,inactive
NBPF4,0.0852,-0.27,-0.00584,inactive
LOC401701 (retired record),-0.153,-0.797,-0.359,inactive
TRIM26,-1.52,-2.08,-0.992,inactive
NAA60,-0.773,-0.817,-0.546,inactive
AQP1,0.4,0.503,0.115,inactive
ULK2,-0.125,-0.614,0.0585,inactive
ZXDA,-2.05,-1.23,-1.85,inactive
PIGQ,-1.78,-1.81,-1.56,inactive
CAPN13,0.975,-0.355,0.0886,inactive
GOLGA4,0.0274,0.205,-1.46,inactive
LOC388210 (retired record),-0.171,-0.334,-0.1,inactive
HIP1,-0.42,-2,-1.04,inactive
DENND1C,-0.634,-0.853,-0.717,inactive
LIN7A,-1.08,0.113,0.0512,inactive
ERRFI1,-1.19,-1.45,-1.07,inactive
HMGN3,0.0543,0.284,0.316,inactive
TTLL8,0.34,0.822,-0.0329,inactive
IL3,2.46,3.17,2.45,active
ZNF793,-1.54,-1.66,-1.29,inactive
ZWILCH,-1.39,-1.85,-0.329,inactive

Targets listed so far whose target name begins with T or t (8):
Target gene,"robust z-score, replicate 1","robust z-score, replicate 2","robust z-score, replicate 3",Outcome
TMEM175,0.924,1.77,1.12,inactive
TEX2,-2.1,-0.417,-0.305,inactive
TEX101,1.16,0.955,0.968,inactive
TMEM154,-0.148,-0.673,-0.608,inactive
TOMM20,0.72,-0.396,-0.468,inactive
TRIM64FP,-0.583,-1.11,-0.954,inactive
TRIM26,-1.52,-2.08,-0.992,inactive
TTLL8,0.34,0.822,-0.0329,inactive
